Publication doi:10.1101/298455 (bioRxiv, 2018)
These are yes or no findings as the source states them, for the method shown. Some entries that bind do so weakly or less than the wild type. Where a sequence is shown, tags or fusion partners need not be part of it.

Chains of the proteins cited; added tags and fusions are not shown.
UniProt Q03389: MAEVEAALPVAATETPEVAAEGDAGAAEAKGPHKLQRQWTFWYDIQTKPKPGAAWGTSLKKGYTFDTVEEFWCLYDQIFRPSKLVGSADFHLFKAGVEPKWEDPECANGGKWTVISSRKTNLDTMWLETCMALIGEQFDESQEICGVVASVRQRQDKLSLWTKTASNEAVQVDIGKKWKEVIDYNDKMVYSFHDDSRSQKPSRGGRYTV

Biological target: wheat eIF(iso)4E (wheat) (UniProt Q03389)
Test: ELISA

B1: GST-VPg5 fusion protein (peptide)
chain: RKKGKGKGTTVGMGKSSRRFINMYGF
With B1 as the binder, how does the binding read?
Its binding is “binds”.
